{"source": "the supplement of paper PMC3334620", "note": "In all, about 33,000 sequences were measured (“E-score (-0.5 to 0.5)”: median about -0.0034, highest 2% from about 0.25 on). Some of the results follow."}
{"molecular_target": "T1, Yap3 (UniProt P38749)", "T1 sequence": "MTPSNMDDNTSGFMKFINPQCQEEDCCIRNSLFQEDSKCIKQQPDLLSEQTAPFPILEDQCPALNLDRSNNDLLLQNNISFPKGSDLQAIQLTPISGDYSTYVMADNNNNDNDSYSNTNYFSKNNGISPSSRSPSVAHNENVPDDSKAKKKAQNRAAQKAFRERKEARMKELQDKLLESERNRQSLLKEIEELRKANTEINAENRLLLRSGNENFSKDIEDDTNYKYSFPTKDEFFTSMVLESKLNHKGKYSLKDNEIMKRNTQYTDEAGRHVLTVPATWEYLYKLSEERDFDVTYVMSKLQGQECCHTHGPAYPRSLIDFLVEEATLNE", "experiment": "PBM E-score (8-mer binding enrichment) (E-score (-0.5 to 0.5)); higher = stronger / more preferred TF binding", "conditions": "protein concentration: 100 nM; construct: GST-full length", "method_in_brief": "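Masliner-normalised scans of fluorescent anti-GST signal were the basis for scoring. That signal came from GST-tagged yeast transcription factors applied at about 100-200 nM to double-stranded universal all-10-mer Agilent arrays on fresh or once-stripped slides. Each ungapped eight-base word, pooled with its reverse complement, received an E-score from the Universal PBM Analysis Suite.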"}
{"sequence": "ACGAATGA", "PBM E-score": 0.122}
{"sequence": "GGCTACAA", "PBM E-score": 0.0593}
{"sequence": "TGACAGCA", "PBM E-score": 0.00105}
{"sequence": "CACACTAG", "PBM E-score": -0.0707}
{"sequence": "ACGACGTG", "PBM E-score": 0.018}
{"sequence": "GGCGTGAA", "PBM E-score": -0.168}
{"sequence": "ACTGAGCG", "PBM E-score": -0.152}
{"sequence": "AAGTCCAC", "PBM E-score": -0.145}
{"sequence": "GCGTATCA", "PBM E-score": 0.0743}
{"sequence": "CAGCGGCA", "PBM E-score": -0.116}
{"sequence": "AATCGGAC", "PBM E-score": 0.00628}
{"sequence": "CCACTGTA", "PBM E-score": 0.0978}
{"sequence": "GAATTGAA", "PBM E-score": 0.194}
{"sequence": "CTAGCCTC", "PBM E-score": -0.148}
{"sequence": "ACCAGTGA", "PBM E-score": -0.0481}
{"sequence": "CAGGCGAG", "PBM E-score": -0.189}
{"sequence": "AGGACATC", "PBM E-score": 0.0832}
{"sequence": "TAATGAAA", "PBM E-score": 0.218}
{"sequence": "TACTTACA", "PBM E-score": 0.0647}
{"sequence": "CGCGCAGA", "PBM E-score": 0.182}
{"sequence": "ATGGTGGG", "PBM E-score": -0.224}
{"sequence": "CCGCCGTC", "PBM E-score": 0.0337}
{"sequence": "GCCCTACC", "PBM E-score": -0.276}
{"sequence": "ATGGAGCA", "PBM E-score": -0.0578}
{"sequence": "GTTCAAGA", "PBM E-score": -0.0731}
{"sequence": "ATCGGAAA", "PBM E-score": 0.112}
{"sequence": "GCCTACCC", "PBM E-score": -0.177}
{"sequence": "GCGGCATA", "PBM E-score": 0.0347}
{"sequence": "AACTCCTC", "PBM E-score": -0.177}
{"sequence": "ACCCAAAA", "PBM E-score": 0.0452}
{"sequence": "GGTACGTA", "PBM E-score": 0.0404}
{"sequence": "CAAGGCAA", "PBM E-score": -0.0302}
{"sequence": "AGCAGACT", "PBM E-score": 0.15}
{"sequence": "TATATACA", "PBM E-score": 0.226}
{"sequence": "ACCCGGCG", "PBM E-score": -0.303}
{"sequence": "CCATATCC", "PBM E-score": 0.182}
{"sequence": "AGGGCGAT", "PBM E-score": -0.234}
{"sequence": "CGTGCGAA", "PBM E-score": -0.02}
{"sequence": "GCCTTCGC", "PBM E-score": -0.0494}
{"sequence": "ACGGGAAA", "PBM E-score": 0.123}
{"sequence": "GACAAGGC", "PBM E-score": -0.177}
{"sequence": "ACAGGCTG", "PBM E-score": -0.123}
{"sequence": "GCTCGAGC", "PBM E-score": 0.17}
{"sequence": "AATAACTG", "PBM E-score": 0.138}
{"sequence": "CACACCCC", "PBM E-score": -0.333}
{"sequence": "ACATACGT", "PBM E-score": -0.00116}
{"sequence": "CAGACTGA", "PBM E-score": -0.118}
{"sequence": "CTATTTCC", "PBM E-score": 0.243}
{"sequence": "CGCCTGAA", "PBM E-score": 0.0486}
{"sequence": "ACAATGAC", "PBM E-score": -0.0505}
{"sequence": "GAATTTAC", "PBM E-score": 0.187}
{"sequence": "ATAGGTCA", "PBM E-score": 0.107}
{"sequence": "AGGGGGTG", "PBM E-score": -0.348}
{"sequence": "AGAAGTGG", "PBM E-score": -0.0921}
{"sequence": "TATTAACA", "PBM E-score": 0.23}
{"sequence": "CACGATGG", "PBM E-score": -0.223}
{"sequence": "GCACCTAA", "PBM E-score": -0.0658}
{"sequence": "AGTCGGTG", "PBM E-score": -0.119}
{"sequence": "AATGCGAG", "PBM E-score": 0.24}
{"sequence": "TGACATAA", "PBM E-score": 0.3}
{"sequence": "ACCATTAT", "PBM E-score": 0.075}
{"sequence": "CGCGTCGC", "PBM E-score": -0.0516}
{"sequence": "AAGGTAAA", "PBM E-score": 0.208}
{"sequence": "AACAATCT", "PBM E-score": 0.072}
{"sequence": "ACCGCAGG", "PBM E-score": -0.216}
{"sequence": "CATGTGAC", "PBM E-score": -0.179}
{"sequence": "AACATAGA", "PBM E-score": 0.149}
{"sequence": "AACTTCTT", "PBM E-score": 0.0422}
{"sequence": "GGACTAGA", "PBM E-score": -0.0685}
{"sequence": "ACGCGAAT", "PBM E-score": 0.106}
{"sequence": "TAAACGAA", "PBM E-score": 0.2}
{"sequence": "ACATGTAT", "PBM E-score": 0.262}
{"sequence": "CGCAAGCA", "PBM E-score": -0.0684}
{"sequence": "CGCCCTCA", "PBM E-score": -0.0805}
{"sequence": "ATGAAGGC", "PBM E-score": 0.0022}
{"sequence": "CTTAACCA", "PBM E-score": 0.129}
{"sequence": "AGATGACC", "PBM E-score": -0.00971}
{"sequence": "ACGCGGCA", "PBM E-score": -0.0121}
{"sequence": "CGGTAGCA", "PBM E-score": 0.0393}
{"sequence": "AGGGCCGA", "PBM E-score": 0.0323}
{"sequence": "AAGCATGC", "PBM E-score": -0.0967}
{"sequence": "AGCTGTGC", "PBM E-score": -0.186}
{"sequence": "GAAAAGAA", "PBM E-score": 0.0727}
{"sequence": "CAGGATGC", "PBM E-score": 0.0104}
{"sequence": "GCATATGC", "PBM E-score": 0.0435}
{"sequence": "ACGCCGGC", "PBM E-score": -0.0534}
{"sequence": "AGCAAGAG", "PBM E-score": -0.0511}
{"sequence": "GAGGATAA", "PBM E-score": -0.0446}
{"sequence": "ACTGAACA", "PBM E-score": 0.212}
{"sequence": "AGGGCTGA", "PBM E-score": -0.111}
{"sequence": "TACACATA", "PBM E-score": 0.168}
{"sequence": "AGGTAGCG", "PBM E-score": -0.0604}
{"sequence": "ATGGACAC", "PBM E-score": 0.0777}
{"sequence": "CTGCTTTC", "PBM E-score": 0.0811}
{"sequence": "AAGTAAAT", "PBM E-score": 0.26}
{"sequence": "CCATACTA", "PBM E-score": 0.154}
{"sequence": "CTCGTACC", "PBM E-score": -0.0269}
{"sequence": "ATTTGATA", "PBM E-score": 0.273}
{"sequence": "AGCATACT", "PBM E-score": -0.0413}
{"sequence": "AGATCTAG", "PBM E-score": -0.119}
{"sequence": "ACAACCTG", "PBM E-score": 0.0569}
{"sequence": "ATAGATAT", "PBM E-score": 0.189}
{"sequence": "ATACACCA", "PBM E-score": 0.102}
{"sequence": "AGTGGGAG", "PBM E-score": -0.0546}
{"sequence": "AGTGTCGC", "PBM E-score": 0.0704}
{"sequence": "GCCTCGAC", "PBM E-score": -0.0873}
{"sequence": "ACGTAAGG", "PBM E-score": 0.137}
{"sequence": "GTATTTAA", "PBM E-score": 0.194}
{"sequence": "ATTTTCCC", "PBM E-score": 0.0787}
{"sequence": "CGACTAAG", "PBM E-score": -0.162}
{"sequence": "GGCACACC", "PBM E-score": -0.278}
{"sequence": "TCTGCAGA", "PBM E-score": 0.0937}
{"sequence": "TCTACGAA", "PBM E-score": -0.155}
{"sequence": "ACACGTAT", "PBM E-score": 0.0936}
{"sequence": "CAGAACGG", "PBM E-score": -0.0958}
{"sequence": "CCCTAGAA", "PBM E-score": 0.0308}
{"sequence": "CGTCCCGA", "PBM E-score": -0.194}
{"sequence": "ATTTTGAC", "PBM E-score": 0.194}
{"sequence": "GCCCAGCC", "PBM E-score": -0.17}
{"sequence": "AAAACGGT", "PBM E-score": 0.0105}
{"sequence": "CTACCGAC", "PBM E-score": -0.00826}
{"sequence": "AAACAAAT", "PBM E-score": 0.193}
{"sequence": "GCAAAACC", "PBM E-score": -0.0668}
{"sequence": "CTGAAACC", "PBM E-score": 0.0376}
{"sequence": "CAATTACG", "PBM E-score": 0.208}
{"sequence": "AATCACAG", "PBM E-score": 0.058}
{"sequence": "GACTATAA", "PBM E-score": 0.0998}
{"sequence": "ACTGATCC", "PBM E-score": 0.0385}
{"sequence": "AACCACCC", "PBM E-score": -0.162}
{"sequence": "GGTTGCAA", "PBM E-score": 0.105}
{"sequence": "CCCGAACA", "PBM E-score": 0.101}
{"sequence": "AGAATGTA", "PBM E-score": -0.0044}
{"sequence": "ATGCTGGC", "PBM E-score": 0.0131}
{"sequence": "ACGATCAC", "PBM E-score": -0.0669}
{"sequence": "CGAAATTC", "PBM E-score": 0.0365}
{"sequence": "AAGTACCT", "PBM E-score": -0.185}
{"sequence": "TACGCGGA", "PBM E-score": -0.0209}
{"sequence": "ACGCCGCG", "PBM E-score": -0.0869}
{"sequence": "AATAGCCC", "PBM E-score": -0.104}
{"sequence": "ATTGGTTA", "PBM E-score": 0.162}
{"sequence": "CGGAAATA", "PBM E-score": 0.289}
{"sequence": "AACTGCTT", "PBM E-score": -0.131}
{"sequence": "GACGCGAA", "PBM E-score": -0.0406}
{"sequence": "AAAAGAAT", "PBM E-score": 0.208}
{"sequence": "AGATCCGG", "PBM E-score": -0.183}
{"sequence": "CCATGTTC", "PBM E-score": 0.0121}
{"sequence": "ACGATAGA", "PBM E-score": -0.024}
{"sequence": "ACGCACGT", "PBM E-score": -0.206}
{"sequence": "CCTTTATA", "PBM E-score": 0.0052}
{"sequence": "CCCCGTGC", "PBM E-score": -0.124}
{"sequence": "ACATAACG", "PBM E-score": 0.135}
{"sequence": "AGAAGATG", "PBM E-score": -0.0173}
{"sequence": "ACAGGTAT", "PBM E-score": 0.152}
{"sequence": "ACCACTCC", "PBM E-score": -0.14}
{"sequence": "CTACAGTC", "PBM E-score": -0.144}
{"sequence": "GTGCGAAC", "PBM E-score": -0.162}
{"sequence": "AGCCTTTA", "PBM E-score": 0.0345}
{"sequence": "ATCGCGGA", "PBM E-score": -0.0771}
{"sequence": "TACGACAA", "PBM E-score": 0.182}
{"sequence": "CGCGTACC", "PBM E-score": -0.196}
{"sequence": "CATCACCA", "PBM E-score": 0.131}
{"sequence": "AAGGGGAG", "PBM E-score": -0.362}
{"sequence": "CGGGTAGA", "PBM E-score": 0.0108}
{"sequence": "ATTTGCGA", "PBM E-score": 0.182}
{"sequence": "CCTCCACG", "PBM E-score": -0.149}
{"sequence": "CCCGCCGC", "PBM E-score": -0.0464}
{"sequence": "TGAAAGAA", "PBM E-score": 0.297}
{"sequence": "GTTTGACA", "PBM E-score": 0.0805}
{"sequence": "CTGCAGTA", "PBM E-score": -0.144}
{"sequence": "TCTAAAAA", "PBM E-score": -0.0367}
{"sequence": "ACCTTTTC", "PBM E-score": -0.0024}
{"sequence": "CGTCAACC", "PBM E-score": -0.0459}
